Source: US6706766
No constants are given. Whether binding was seen depends on the method and setting. Some entries that bind do so weakly or less than the wild type.

How the values were obtained:
CIDE-N domain of DFF45 = target: T1, CIDE-N domain of DFF45 (UniProt O00273); test: NMR spectroscopy
T1 sequence (looked up): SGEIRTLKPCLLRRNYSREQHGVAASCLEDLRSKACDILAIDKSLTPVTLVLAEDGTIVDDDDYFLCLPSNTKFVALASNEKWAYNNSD

CIDE-N domain of DFF40 = target: T2, CIDE-N domain of DFF40 (UniProt O76075); test: NMR spectroscopy
T2 sequence (looked up): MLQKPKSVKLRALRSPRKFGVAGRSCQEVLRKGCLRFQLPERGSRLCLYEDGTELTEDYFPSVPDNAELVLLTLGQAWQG

binding (CIDE-N domain of DFF45): binds | binding (CIDE-N domain of DFF40): binds
B1: CIDE-N domain of CIDE-B (protein, UniProt Q9UHD4 1-116, looked up)
chain: MEYLSALNPSDLLRSVSNISSEFGRRVWTSAPPPQRPFRVCDHKRTIRKGLTAATRQELLAKALETLLLNGVLTLVLEEDGTAVDSEDFFQLLEDDTCLMVLQSGQSWSPTRSGVL
